From patent US20250179000A1 (Sanford Burnham Prebys Medical Discovery Institute, priority 2021, published 2025)
Structures were worked out from names or drawings and are uncertain.

By UniProt entry, the sequences of proteins in these tests, tags left out. Residues count along the entry.
UniProt Q14416, 19-872 limits assumed: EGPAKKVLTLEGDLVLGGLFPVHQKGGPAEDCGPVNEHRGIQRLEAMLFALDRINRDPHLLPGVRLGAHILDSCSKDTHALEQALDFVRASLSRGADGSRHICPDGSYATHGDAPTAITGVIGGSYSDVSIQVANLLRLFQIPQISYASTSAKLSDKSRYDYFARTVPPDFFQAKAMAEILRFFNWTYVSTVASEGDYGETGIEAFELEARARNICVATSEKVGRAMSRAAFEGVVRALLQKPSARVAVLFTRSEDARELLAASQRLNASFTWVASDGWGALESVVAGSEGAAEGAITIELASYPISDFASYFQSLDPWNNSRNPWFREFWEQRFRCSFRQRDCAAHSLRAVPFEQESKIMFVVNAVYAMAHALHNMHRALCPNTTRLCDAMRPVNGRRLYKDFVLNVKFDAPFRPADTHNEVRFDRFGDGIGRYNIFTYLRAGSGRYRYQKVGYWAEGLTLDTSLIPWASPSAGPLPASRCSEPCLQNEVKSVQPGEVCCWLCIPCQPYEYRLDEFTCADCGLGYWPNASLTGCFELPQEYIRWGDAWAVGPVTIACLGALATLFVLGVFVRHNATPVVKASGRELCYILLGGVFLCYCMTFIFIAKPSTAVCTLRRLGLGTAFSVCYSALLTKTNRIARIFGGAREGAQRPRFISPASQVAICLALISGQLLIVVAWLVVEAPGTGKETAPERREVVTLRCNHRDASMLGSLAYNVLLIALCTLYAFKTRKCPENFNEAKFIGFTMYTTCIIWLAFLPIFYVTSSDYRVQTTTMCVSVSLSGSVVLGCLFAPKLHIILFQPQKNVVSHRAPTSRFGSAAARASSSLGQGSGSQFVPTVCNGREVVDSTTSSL
UniProt Q14832, 23-879 limits assumed: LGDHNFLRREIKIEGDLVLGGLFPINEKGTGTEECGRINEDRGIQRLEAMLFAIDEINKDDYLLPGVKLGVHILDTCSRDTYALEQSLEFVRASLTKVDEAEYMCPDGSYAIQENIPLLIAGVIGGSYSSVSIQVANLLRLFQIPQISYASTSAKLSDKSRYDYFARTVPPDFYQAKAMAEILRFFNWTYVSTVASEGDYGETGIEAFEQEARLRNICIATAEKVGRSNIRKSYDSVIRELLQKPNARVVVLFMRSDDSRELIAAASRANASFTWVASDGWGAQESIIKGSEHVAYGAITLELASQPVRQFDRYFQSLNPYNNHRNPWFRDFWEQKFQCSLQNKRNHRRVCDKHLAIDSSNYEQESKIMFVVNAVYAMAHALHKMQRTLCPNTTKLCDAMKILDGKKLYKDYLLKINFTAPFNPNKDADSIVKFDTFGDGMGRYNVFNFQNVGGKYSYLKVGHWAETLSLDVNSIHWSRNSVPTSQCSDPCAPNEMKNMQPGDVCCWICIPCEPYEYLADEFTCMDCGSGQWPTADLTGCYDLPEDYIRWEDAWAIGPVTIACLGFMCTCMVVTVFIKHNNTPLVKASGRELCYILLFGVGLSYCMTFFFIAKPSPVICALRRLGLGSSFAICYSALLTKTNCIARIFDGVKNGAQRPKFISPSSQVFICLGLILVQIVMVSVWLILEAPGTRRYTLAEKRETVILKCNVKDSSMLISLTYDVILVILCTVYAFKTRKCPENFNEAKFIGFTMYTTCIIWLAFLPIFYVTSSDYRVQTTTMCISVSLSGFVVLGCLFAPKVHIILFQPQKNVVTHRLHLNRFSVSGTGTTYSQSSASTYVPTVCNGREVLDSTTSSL
UniProt P31421, 19-872 limits assumed: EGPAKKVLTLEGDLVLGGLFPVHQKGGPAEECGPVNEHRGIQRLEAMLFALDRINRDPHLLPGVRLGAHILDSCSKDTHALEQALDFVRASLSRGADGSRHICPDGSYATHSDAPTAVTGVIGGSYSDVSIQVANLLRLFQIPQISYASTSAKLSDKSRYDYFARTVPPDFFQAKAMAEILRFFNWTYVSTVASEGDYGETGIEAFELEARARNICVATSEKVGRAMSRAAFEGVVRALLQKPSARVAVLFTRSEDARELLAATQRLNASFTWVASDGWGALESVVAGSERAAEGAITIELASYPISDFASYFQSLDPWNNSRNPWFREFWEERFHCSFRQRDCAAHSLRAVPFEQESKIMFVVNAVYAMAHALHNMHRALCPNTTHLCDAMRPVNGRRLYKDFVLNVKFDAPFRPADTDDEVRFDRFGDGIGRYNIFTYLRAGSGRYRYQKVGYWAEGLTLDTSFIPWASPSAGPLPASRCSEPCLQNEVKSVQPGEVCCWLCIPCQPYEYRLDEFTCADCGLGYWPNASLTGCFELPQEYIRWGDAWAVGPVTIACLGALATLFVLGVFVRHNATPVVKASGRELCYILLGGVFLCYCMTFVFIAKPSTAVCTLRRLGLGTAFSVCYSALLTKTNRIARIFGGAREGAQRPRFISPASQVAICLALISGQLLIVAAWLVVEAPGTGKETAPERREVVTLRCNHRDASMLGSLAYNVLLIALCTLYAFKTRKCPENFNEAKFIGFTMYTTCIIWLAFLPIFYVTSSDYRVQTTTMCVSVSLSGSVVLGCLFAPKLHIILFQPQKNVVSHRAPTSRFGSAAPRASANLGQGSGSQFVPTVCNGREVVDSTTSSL
UniProt P31422, 23-879 limits assumed: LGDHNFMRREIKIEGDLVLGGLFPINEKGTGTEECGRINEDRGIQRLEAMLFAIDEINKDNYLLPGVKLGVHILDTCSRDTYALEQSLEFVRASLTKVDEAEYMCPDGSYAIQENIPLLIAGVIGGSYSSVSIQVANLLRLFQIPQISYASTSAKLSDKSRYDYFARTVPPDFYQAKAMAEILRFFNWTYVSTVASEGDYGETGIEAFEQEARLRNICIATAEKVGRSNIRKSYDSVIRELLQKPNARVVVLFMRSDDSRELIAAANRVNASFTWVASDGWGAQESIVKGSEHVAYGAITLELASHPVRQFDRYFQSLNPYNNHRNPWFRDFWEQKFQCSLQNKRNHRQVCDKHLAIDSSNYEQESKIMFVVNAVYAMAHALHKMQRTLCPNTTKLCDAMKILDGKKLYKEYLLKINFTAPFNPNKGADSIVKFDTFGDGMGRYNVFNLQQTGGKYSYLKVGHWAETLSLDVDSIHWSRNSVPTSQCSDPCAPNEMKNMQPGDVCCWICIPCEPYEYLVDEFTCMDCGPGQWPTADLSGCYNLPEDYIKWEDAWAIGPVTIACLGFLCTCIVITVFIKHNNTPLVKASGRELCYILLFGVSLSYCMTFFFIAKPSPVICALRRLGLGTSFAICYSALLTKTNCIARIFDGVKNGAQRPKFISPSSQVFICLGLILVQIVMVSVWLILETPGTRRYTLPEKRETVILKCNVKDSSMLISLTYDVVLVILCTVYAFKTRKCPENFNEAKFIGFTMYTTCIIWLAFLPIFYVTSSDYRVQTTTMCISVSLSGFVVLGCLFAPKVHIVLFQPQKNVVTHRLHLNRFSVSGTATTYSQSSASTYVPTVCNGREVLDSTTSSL

Tests used:
Human mGlu2 = Human mGlu2 (Homo sapiens, UniProt Q14416); assay: mGlu receptor in vitro assay, human mGlu2; settings: read-out: Human mGlu2 AVG EC50
Human mGlu3 = Human mGlu3 (Homo sapiens, UniProt Q14832); assay: mGlu receptor in vitro assay, human mGlu3; settings: read-out: Human mGlu3 AVG EC50
Rat mGlu2 = Rat mGlu2 (Rattus norvegicus, UniProt P31421); assay: mGlu receptor in vitro assay, thallium flux through GIRK channels, rat mGlu2; settings: read-out: Rat mGlu2 AVG EC50; PAM potency with EC20 glutamate
Experimental: (§1) Human Embryonic Kidney (HEK-293) cell lines co-expressing rat mGlu receptors 2, 3, 4, 6, 7 or 8 and G protein-coupled inwardly-rectifying potassium (GIRK) channels were grown in Growth Media containing 45% DMEM, 45% F-12, 10% FBS, 20 mM HEPES, 2 mM L-glutamine, antibiotic/antimycotic, non-essential amino acids, 700 μg/mL G418, and 0.6 μg/ml puromycin at 37° C. in the presence of 5% CO2. Cells expressing rat mGlu1 and mGlu5 receptor were cultured as described in Hemstapat et al (Mol. Pharmacol. 2006, 70, 616-626). All cell culture reagents were purchased from Invitrogen Corp. (Carlsbad, CA) unless otherwise noted. […]
(§2) Compound activity at the group II (mGlu2 and mGlu3) and group III (mGlu4, mGlu6, mGlu7, and mGlu8) was assessed using thallium flux through GIRK channels, a method that has been described in detail. […] Cell plates and compound plates were loaded onto a kinetic imaging plate reader (FDSS 6000 or 7000; Hamamatsu Corporation, Bridgewater, NJ). Appropriate baseline readings were taken (10 images at 1 Hz; excitation, 470±20 nm; emission, 540±30 nm) and test compounds were added in a 20 μL volume and incubated for approximately 2.5 min before the addition of 10 μL of thallium buffer with or without agonist. […] Data were analyzed using Excel (Microsoft Corp, Redmond, WA). […] Potencies were calculated from fits using a four-point parameter logistic equation. […]

Rat mGlu3 = Rat mGlu3 (Rattus norvegicus, UniProt P31422); assay: mGlu receptor in vitro assay (thallium flux through GIRK channels / calcium assay), rat mGlu3; settings: read-out: Rat mGlu3 AVG EC50; PAM potency with EC20 glutamate
Experimental: as §1, §2

SMILES | EC50 (Human mGlu2) | EC50 (Human mGlu3) | EC50 (Rat mGlu2) | EC50 (Rat mGlu3)
COc1ccc(C(=O)O)cc1OCCCCOc1ccc2c(c1C)OC(C)(C)CC2=O | > 10 µM | > 30 µM | – | –
COc1ccc(C(=O)O)cc1OCOc1ccc(C(=O)CC(C)(C)C)c(O)c1C | 0.179 µM | > 30 µM | 0.348 µM | > 30 µM
